From patent US10881639B2, “Use of composition of multivitamin in preparing drug for stimulating gastrointestinal system motility” (Zensun (Shanghai) Science & Technology, Co., Ltd., priority 2015, dated 2021) come the findings set out here.

In this data set the test system is mice with 2.5 mg/kg loperamide-induced constipation. The experiment in a line: Small intestinal propulsive rate of a charcoal solution in mice with 2.5 mg/kg loperamide-induced constipation, with positive controls (Example 2). In kind it is in vivo, mouse. To be noted: positive drugs intragastric: itopride 30.75, naloxone 5.0, domperidone 6.16, mosapride citrate 3.075 mg/kg; loperamide 2.5 mg/kg s.c. From the text:
1.2 Experimental Animals Species: mouse Strains: C57BL/6 Gender and quantity: Female, 65 Animal week-age: 8-9 weeks Weight range: 19.0-25.0 g Animal sources: Shanghai Lingchang Biotechnology Co. LTD Animal certificate number: 2013001804393 2. Experimental Design and Methods 2.1 Test Grouping:
Experimental animals were randomly divided into 8 groups (8 animals per group) by the random number table method.
2.2 Reagent Preparation 1) 0.5% CMC—Na solution: 2.0 g of CMC—Na powder was weighed and 300 ml ultra-pure water was slowly added thereto; the mixture was subjected to magnetic stirring until it was completely dissolved to reach a constant volume of 400 ml, thereby preparing a clear solution of 0.5%, which was stored at 4° C. for later use. 2) 1% Tween-80 in saline: 40 ml saline was accurately measured using a measuring cylinder and added into a 50 ml centrifuge tube; 400 μl Tween-80 was measured using a pipette and added into the centrifuge tube; and the mixture was subjected to vortex oscillation to be homogeneous and was then placed at room temperature for later use. 3) 5% charcoal solution: 100 g of Arabic gum was accurately weighed and 800 ml water was added thereto; and the solution was boiled until it was transparent. 50 g of activated carbon powder was weighed and added into the above solution and the mixture was boiled for three times. […]

Counter-ions that a name gives are not always drawn.

As for `COc1ccc(C(=O)NCc2ccc(OCCN(C)C)cc2)cc1OC` [Itopride hydrochloride], the “Length of the small intestine” value was 19.1 ± 1.1 cm and the weight turned out to be 22.5 ± 1.1 g.
